Measurements as given in PubChem BioAssay AID1439 (NMMLSC, 2008).
Screen size: about 220,000 compounds; about 770 (0.35%) were called active. This list was built around the results that the source calls inconclusive (neither active nor inactive); the mix of calls is not that of the screen. No stated cut-off is given here; in the data, active means binding response below about 49% or above about 150%; inconclusive means no clear call, values can overlap the other calls; inactive means in between.

By UniProt entry, the sequences of proteins in these tests, tags left out.
UniProt P09471, whole entry, looked up: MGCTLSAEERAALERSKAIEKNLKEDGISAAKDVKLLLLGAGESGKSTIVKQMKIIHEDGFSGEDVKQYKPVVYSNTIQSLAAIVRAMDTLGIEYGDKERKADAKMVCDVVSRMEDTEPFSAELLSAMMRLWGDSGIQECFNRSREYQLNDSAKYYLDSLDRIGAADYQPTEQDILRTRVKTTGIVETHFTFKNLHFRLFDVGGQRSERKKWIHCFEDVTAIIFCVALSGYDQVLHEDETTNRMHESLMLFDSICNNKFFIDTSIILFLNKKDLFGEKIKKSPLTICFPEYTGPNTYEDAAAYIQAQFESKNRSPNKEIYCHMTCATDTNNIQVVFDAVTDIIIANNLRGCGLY

The compounds below were run against Guanine nucleotide-binding protein G(o) subunit alpha (Homo sapiens) (UniProt P09471) (assay: RGS7-Galphao binding modulators, primary screen, biochemical, multiplexed bead flow cytometry (AID 1439;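 further: fluorescent Galphao held in activated GDP-AlF4 state binding bead-coupled RGS7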)). Conditions: at 10 µM, actives lie on both sides.
In the case of Cc1cc2c3c(c1)C(C)CC(C)(C)N3C(=O)C2=C(C#N)C#N (centres undefined), the binding response (% of control) is reported as inconclusive: 100%.
Cc1c(NC(=O)CSc2nnc(COc3ccccc3)n2-c2ccccc2)c(=O)n(-c2ccccc2)n1C was tested, and the binding response (% of control) was active: 171% [activator].
In the case of Cc1cc(C)nc(S/C=C/C(=O)c2ccccc2F)n1, the binding response (% of control) is reported as inconclusive: -46%.
In the case of CCN1CCCC1CNC(=O)c1ccc(N2CCOCC2)c(NS(=O)(=O)c2ccc(OC)cc2)c1 (centres undefined), the binding response (% of control) is reported as inactive: 103%.
In the case of Cc1nn(C)c(C)c1S(=O)(=O)N1CCC(CO)(CC2CCCCO2)CC1 (centres undefined), the binding response (% of control) is reported as inactive: 97.7%.
Cc1ccc(NC(=O)/C=C/c2cccc([N+](=O)[O-])c2)nc1 was tested, and the binding response (% of control) was inconclusive: 92.2%.
With Cc1cccc(N2CCN(C(=O)c3cn4ccccc4n3)CC2C)c1 (centres undefined) the binding response (% of control) was inactive: 107%.
For CC(=O)Nc1ccc(C2C(=O)c3ccccc3C2=O)cc1, the binding response (% of control) was inconclusive: 111%.
S=C1NNC2(CC3CC2C2CCCC32)NN1 (centres undefined) was tested, and the binding response (% of control) was inconclusive: 83.5%.
In the case of O=C(O)c1ccc(-c2ccccc2)[nH]c1=O, the binding response (% of control) is reported as inconclusive: 90.8%.
For C#CCOCCOCCOCCNc1nc(N2CCN(C(=O)[C@H](CCCCN)n3cc(C(N)COC(=O)C(F)(F)F)nn3)CC2)nc(N2CCN(C(=O)[C@H](CCCCN)n3cc(C(N)CC(C)C)nn3)CC2)n1 (some centres undefined), the binding response (% of control) was inconclusive: 89.7%.
In the case of COc1cc(NC(=S)Nc2ccc(OC(F)F)cc2)cc(OC)c1, the binding response (% of control) is reported as inconclusive: 116%.
Cc1cccc(C)c1OCC(=O)Nc1ccccc1C(F)(F)F was tested, and the binding response (% of control) was inconclusive: 95.3%.
In the case of CC(=O)c1ccc(NC(=S)NC(=O)c2c(Cl)c(C)nn2C)cc1, the binding response (% of control) is reported as inactive: 101%.
With COc1ccc(C2=NOC(COC(=O)c3ccc4ccccc4n3)C2)cc1 (centres undefined) the binding response (% of control) was inactive: 97%.
CC(=O)Nc1ccc(NC(=O)CSc2nnc(C)c(=O)[nH]2)cc1 was tested, and the binding response (% of control) was inconclusive: 111%.
For O=C(Nc1ccccc1N1CCOCC1)c1cccc(NS(=O)(=O)c2ccc(F)c(F)c2)c1, the binding response (% of control) was inconclusive: 97.1%.
In the case of Cc1c(C(=O)Nc2cccc(N(C)S(C)(=O)=O)c2)cccc1[N+](=O)[O-], the binding response (% of control) is reported as inactive: 99.6%.
Cc1ccc(NC(=O)c2cc3cc(OC(F)(F)F)ccc3[nH]2)cc1 was tested, and the binding response (% of control) was inconclusive: 74%.
In the case of CCOC(=O)c1ccc(NC(=O)C(=O)NCC2(c3ccc(OC)cc3)CCOCC2)cc1, the binding response (% of control) is reported as inconclusive: 134%.
In the case of NCCNc1ccc([N+](=O)[O-])cc1, the binding response (% of control) is reported as inconclusive: 121%.
With COc1ccc(-c2cc([C@H]3[C@@H]4C=CCC[C@@]4(C)C(=O)N3Cc3ccccc3)ccc2F)cc1OC the binding response (% of control) was inconclusive: 99.5%.
With Nc1n[nH]c(=S)n1-c1ccc(Cl)cc1 the binding response (% of control) was inconclusive: 128%.
CCC(C)CCCCNC1=NCCS1 (centres undefined) was tested, and the binding response (% of control) was inconclusive: 89.7%.
For COc1ccccc1NS(=O)(=O)c1cc(NC(=O)C2CCC2)ccc1N1CCCCC1, the binding response (% of control) was inconclusive: 167%.
In the case of Cc1ccc[n+](CC(=O)Nc2cc(C(F)(F)F)ccc2N2CCOCC2)c1, the binding response (% of control) is reported as inactive: 104%.
For Cc1cccc2[nH]c(SCC(=O)O)nc12, the binding response (% of control) was inconclusive: 84.2%.
With O=C(C[n+]1ccc(/C=N/O)cc1)NCc1ccccc1 the binding response (% of control) was inconclusive: 56.8%.
In the case of O=C(NCc1ccco1)c1nc(-c2ccc(F)cc2)no1, the binding response (% of control) is reported as inactive: 104%.
With Cc1ccc2nc(-c3ccc(NC(=O)CN4C(=O)c5ccccc5C4=O)cc3)sc2c1 the binding response (% of control) was inactive: 108%.
In the case of O=C(O)COCC(=O)NCc1csc2ccc(Cl)cc12, the binding response (% of control) is reported as inconclusive: 143%.
For COc1ccc(N/N=C(\C#N)C(=O)NCCc2ccc(OC)c(OC)c2)cc1, the binding response (% of control) was inconclusive: 117%.
With O=C(C1CCN(S(=O)(=O)c2ccc(F)cc2)CC1)N1CCOCC1 the binding response (% of control) was active: 168% [activator].
In the case of COc1ccccc1/C=N/Nc1nc(C)cc(C)n1, the binding response (% of control) is reported as inconclusive: 333%.
With CN(/N=C/c1cc(Cl)cc(Cl)c1O)c1c(Cl)cccc1[N+](=O)[O-] the binding response (% of control) was inconclusive: 94.6%.
Cc1ccc(N(C(=O)Cc2cccs2)C(C(=O)NC2CCCCC2)c2ccccn2)cc1C (centres undefined) was tested, and the binding response (% of control) was inactive: 102%.
For CCOC(=O)CSc1nnc(CNC(=O)c2ccc(S(=O)(=O)N(C)C)cc2)n1C, the binding response (% of control) was inactive: 101%.
With C/C(N)=C(/C#N)C(=O)COC(=O)c1oc2ccccc2c1COC(C)C the binding response (% of control) was inconclusive: 101%.
In the case of CN1N=C(C(C)(C)C)CSC1=Nc1ccccc1, the binding response (% of control) is reported as inconclusive: 152%.
In the case of CCCS(=O)(=O)N1CCCC(C(=O)NCCCN2CCN(c3cccc(Cl)c3)CC2)C1 (centres undefined), the binding response (% of control) is reported as active: 234% [activator].
Cc1nc2nc(SCc3ccc([N+](=O)[O-])cc3)[nH]c2cc1Br was tested, and the binding response (% of control) was inconclusive: 43.6%.
For O=C(Nc1cnccc1C(F)(F)F)NC1CCCCC1, the binding response (% of control) was inconclusive: 150%.
NS(=O)(=O)c1cccc(NC(=O)c2cccs2)c1 was tested, and the binding response (% of control) was inconclusive: 107%.
With O=c1c2[nH]c3ccc(F)cc3c2ncn1CCC1=CCCCC1 the binding response (% of control) was inconclusive: 112%.
With C/C(=N\NC(=O)Cn1ccc(C(F)(F)F)n1)c1ccco1 the binding response (% of control) was inactive: 99.6%.
With COc1ccc(-c2oc(NC(=O)CSc3nncn3C)c(C#N)c2-c2ccc(OC)cc2)cc1 the binding response (% of control) was inactive: 102%.
In the case of CCOC(=O)c1c(CCl)nc2ccccc2c1-c1ccccc1, the binding response (% of control) is reported as inconclusive: 94.4%.
O=C(CCc1nnc(CCCCc2ccccc2)o1)N1CCC(N2CCCC2)CC1 was tested, and the binding response (% of control) was inactive: 102%.
With N#CCc1nc2ccccc2c(=O)[nH]1 the binding response (% of control) was inconclusive: 104%.
With CCOC(=O)/C(=C\c1ccc(OC(F)F)cc1)C1=Nn2c(nnc2-c2ccc(Cl)cc2)SC1 the binding response (% of control) was inactive: 102%.
In the case of COc1ccc(NC(=O)CCN2C(=O)/C(=C/c3ccc4c(c3)OCO4)SC2=S)cc1, the binding response (% of control) is reported as inconclusive: 99.2%.
In the case of Cc1ccc(C(=O)NNC(=O)CSc2n[nH]c(-c3cccnc3)n2)cc1, the binding response (% of control) is reported as inactive: 103%.
In the case of O=C(NCc1cccnc1)c1ccc(COc2ccc(Cl)cc2Cl)o1, the binding response (% of control) is reported as inactive: 99%.
In the case of COC(C/C=C/C(=O)COCc1ccccc1)OC, the binding response (% of control) is reported as inconclusive: 81.7%.
With CCCCC(C(=O)O)C(C)CC(=O)NNC(=O)c1ccco1 (centres undefined) the binding response (% of control) was inactive: 102%.
With Cc1ccccc1NC(=O)OCc1cccnc1Oc1ccc(Cl)cc1 the binding response (% of control) was inconclusive: 114%.
For CCC(=O)c1ccc(OC)c(OC)c1O, the binding response (% of control) was inconclusive: 106%.
COC(=O)N1CCCc2cc(C)ccc21 was tested, and the binding response (% of control) was inconclusive: 100%.
For CCCCN(C)CCNC(=O)CCNC(=O)Cn1ccc2ccccc2c1=O, the binding response (% of control) was inconclusive: 94.5%.
CCOc1ccc(/C(O)=C2\C(=O)C(=O)N(c3cc(C)on3)C2c2ccccc2OC)cc1 (centres undefined) was tested, and the binding response (% of control) was inactive: 138%.
With CCCS(=O)(=O)c1c(S(=O)(=O)CCC)c2ccc(C(N)=O)cn2c1C(=O)c1ccc(OC)cc1 the binding response (% of control) was inactive: 96.8%.
In the case of COC(=O)c1cc(C(=O)NCCC(C)C)cc([N+](=O)[O-])c1, the binding response (% of control) is reported as inactive: 101%.
With O=C(O)C1CCC(Cn2c(SCc3cc(=O)n4ccccc4n3)nc3ccsc3c2=O)CC1 (centres undefined) the binding response (% of control) was inactive: 104%.
In the case of COc1ccccc1-c1cc(C(F)(F)F)nc(S(=O)(=O)CCCC(=O)NC(C)C)n1, the binding response (% of control) is reported as inactive: 102%.
In the case of COc1cc(/C=N\NC(=O)CNC(=O)C(c2ccccc2)c2ccccc2)ccc1O, the binding response (% of control) is reported as inconclusive: 160%.
In the case of Cc1ccc(NC(=O)c2cc(=O)n(Cc3ccccc3)c(=O)[nH]2)cc1C, the binding response (% of control) is reported as inconclusive: 117%.
With Cc1ccccc1C(=O)NC=C1C(=O)OC(C)(C)OC1=O the binding response (% of control) was inconclusive: 93.7%.
CCOC(=O)c1cc(=O)c2ccc(OCC(=O)Nc3ccccc3)cc2o1 was tested, and the binding response (% of control) was inconclusive: 101%.
In the case of O=C(NNC(=S)Nc1ccccc1)C1CCCCC1, the binding response (% of control) is reported as inactive: 101%.
For COc1ccc(OC)c(CC(NC(C)=O)C(=O)NC2CCN(c3cc(C)nc4ncnn34)CC2)c1 (centres undefined), the binding response (% of control) was inactive: 100%.
With Cc1ccc(NC(=O)CC2SCCNC2=O)cc1[N+](=O)[O-] (centres undefined) the binding response (% of control) was inconclusive: -38%.
For C=CCN1C(=O)C(Cc2ccc(SC(F)F)cc2)SC1=Nc1ccc(C(=O)O)cc1 (centres undefined), the binding response (% of control) was inconclusive: 99.4%.
With CNS(=O)(=O)c1ccc(C)cc1 the binding response (% of control) was inactive: 102%.
In the case of CN(C)S(=O)(=O)c1cc(NC(=O)Cn2ccsc2=N)ccc1Cl, the binding response (% of control) is reported as inconclusive: 118%.
In the case of CCn1c(C)nc2cc(C(=O)N/N=C/c3ccc(N4CCOCC4)cc3)ccc21, the binding response (% of control) is reported as inconclusive: 92%.
With COC(=O)c1cc(O)cc(OC)c1Oc1cc(C)cc(O)c1C(=O)O the binding response (% of control) was inconclusive: 56.7%.
With COc1ccc2c(c1)C(=C(C#N)C#N)C(=O)N2CCc1ccccc1 the binding response (% of control) was inconclusive: 83.5%.
CCOC(=O)c1cc[nH]c1C was tested, and the binding response (% of control) was inactive: 98.1%.
For CC(=O)C1=C(O)C(=O)N(C)C1c1ccccc1[N+](=O)[O-] (centres undefined), the binding response (% of control) was inconclusive: 78.5%.
With CCOC(=O)C1CCCN(C(=O)CN2C(=O)/C(=C/c3ccc(OC)cc3)Oc3ccccc32)C1 (centres undefined) the binding response (% of control) was inactive: 97.1%.
CCCC12CN(C(=O)c3ccc([N+](=O)[O-])cc3)CC(C)(CN(C(=O)c3ccc([N+](=O)[O-])cc3)C1)C2=O was tested, and the binding response (% of control) was inconclusive: 95.4%.
In the case of O=C(Nc1cccnc1)c1cccc(S(=O)(=O)N2CCc3ccccc32)c1, the binding response (% of control) is reported as inconclusive: 95.3%.
For O=C(O)COc1ccc(/C=N/NC(=O)c2ccc(-c3csc(Nc4ccc(Cl)cc4)n3)cc2)cc1, the binding response (% of control) was inconclusive: 83%.
For CC(=O)c1sc2nc(CSc3nncn3C)[nH]c(=O)c2c1C, the binding response (% of control) was inconclusive: 120%.
With Cc1c([N+](=O)[O-])c(C/C=N/O)nn1C the binding response (% of control) was inconclusive: 664%.
Cc1ccc(C(=O)Oc2ccccc2N2CCOCC2)cc1 was tested, and the binding response (% of control) was inconclusive: 50.9%.
With O=C(c1cccs1)N1CCN(Cc2ccccc2[N+](=O)[O-])CC1 the binding response (% of control) was inactive: 88.7%.
COCC1=C(C(=O)OC)C(c2ccco2)n2ncnc2N1 (centres undefined) was tested, and the binding response (% of control) was inconclusive: 169%.
With Cc1csc(NC(=O)CSc2nnc(-c3ccoc3C)n2CCc2ccccc2)n1 the binding response (% of control) was inactive: 98.8%.
